The list shows a part of the results.
Legend:
Assay in all cases: log2 fold change, soluble protein after heating vs DMSO (PISA); higher = thermal stabilisation; K562 lysate, 10 uM; active = over 0.2 and 3.5 SD of the protein, either way, in both replicates (recomputed)
vemurafenib = compound: CCCS(=O)(=O)Nc1ccc(F)c(C(=O)c2c[nH]c3ncc(-c4ccc(Cl)cc4)cc23)c1F [vemurafenib]
How it was run: (§1)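 Pellets of K562 cells were dounce-homogenised in PBS pH 7.4 with 1 mM MgCl2, and the crude extract was held at 1 mg/mL protein for a 30 min treatment with 10 μM compound. Aliquots were heated for 3 min over 48°C-58°C and pooled before NP-40 was added to 0.5% at 4°C. The supernatant from 21,000xg for 90 min was quantified by TMTpro 16plex LC-MS/MS with channel sums equalised. Values are reported from duplicates as log-two fold change in thermal stability relative to solvent controls.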

Sequences of proteins named here, by UniProt entry; tags and fusion partners are left off. A change or cut given only in a name is not applied to a line headed by its entry.
UniProt P51580: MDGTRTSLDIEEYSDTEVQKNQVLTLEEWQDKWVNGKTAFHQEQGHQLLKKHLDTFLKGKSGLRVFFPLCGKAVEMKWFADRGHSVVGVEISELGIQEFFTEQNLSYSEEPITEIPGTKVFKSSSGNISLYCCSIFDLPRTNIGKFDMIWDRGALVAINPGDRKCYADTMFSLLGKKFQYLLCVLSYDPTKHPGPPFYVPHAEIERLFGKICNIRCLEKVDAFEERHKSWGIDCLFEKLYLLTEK
UniProt Q969M1: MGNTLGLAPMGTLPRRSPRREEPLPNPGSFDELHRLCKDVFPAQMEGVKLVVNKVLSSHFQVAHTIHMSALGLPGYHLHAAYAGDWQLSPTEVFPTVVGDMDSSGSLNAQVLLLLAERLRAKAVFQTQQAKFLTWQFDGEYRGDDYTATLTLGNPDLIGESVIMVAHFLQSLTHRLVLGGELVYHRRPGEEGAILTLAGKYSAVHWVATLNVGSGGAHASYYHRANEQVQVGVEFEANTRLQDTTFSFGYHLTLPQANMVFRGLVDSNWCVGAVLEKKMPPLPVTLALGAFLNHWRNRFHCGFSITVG
UniProt P42167: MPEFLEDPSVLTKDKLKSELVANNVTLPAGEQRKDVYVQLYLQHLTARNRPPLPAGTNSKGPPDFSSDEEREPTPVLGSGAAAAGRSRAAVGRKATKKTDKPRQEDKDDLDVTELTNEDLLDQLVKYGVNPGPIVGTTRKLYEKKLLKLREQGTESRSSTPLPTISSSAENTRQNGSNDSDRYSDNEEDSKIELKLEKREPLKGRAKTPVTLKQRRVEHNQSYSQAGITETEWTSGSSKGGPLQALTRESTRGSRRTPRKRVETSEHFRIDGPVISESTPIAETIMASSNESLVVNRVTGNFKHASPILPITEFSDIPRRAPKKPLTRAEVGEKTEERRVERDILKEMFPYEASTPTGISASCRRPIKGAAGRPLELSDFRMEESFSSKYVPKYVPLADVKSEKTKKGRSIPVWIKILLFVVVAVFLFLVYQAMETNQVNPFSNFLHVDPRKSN
UniProt O43399: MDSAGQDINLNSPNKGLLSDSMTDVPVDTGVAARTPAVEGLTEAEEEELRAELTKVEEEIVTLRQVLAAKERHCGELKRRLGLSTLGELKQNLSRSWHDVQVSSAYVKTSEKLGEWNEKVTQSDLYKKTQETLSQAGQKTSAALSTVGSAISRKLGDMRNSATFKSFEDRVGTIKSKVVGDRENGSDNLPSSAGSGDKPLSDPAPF
UniProt P06753, whole entry, looked up: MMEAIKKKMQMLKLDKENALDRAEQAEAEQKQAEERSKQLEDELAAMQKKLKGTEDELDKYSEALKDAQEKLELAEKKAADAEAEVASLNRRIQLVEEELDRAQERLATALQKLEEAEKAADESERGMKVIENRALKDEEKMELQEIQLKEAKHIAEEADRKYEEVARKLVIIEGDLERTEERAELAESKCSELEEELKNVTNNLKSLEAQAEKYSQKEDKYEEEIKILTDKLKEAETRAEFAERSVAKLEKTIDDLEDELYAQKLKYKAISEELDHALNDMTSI
UniProt O00220, whole entry, looked up: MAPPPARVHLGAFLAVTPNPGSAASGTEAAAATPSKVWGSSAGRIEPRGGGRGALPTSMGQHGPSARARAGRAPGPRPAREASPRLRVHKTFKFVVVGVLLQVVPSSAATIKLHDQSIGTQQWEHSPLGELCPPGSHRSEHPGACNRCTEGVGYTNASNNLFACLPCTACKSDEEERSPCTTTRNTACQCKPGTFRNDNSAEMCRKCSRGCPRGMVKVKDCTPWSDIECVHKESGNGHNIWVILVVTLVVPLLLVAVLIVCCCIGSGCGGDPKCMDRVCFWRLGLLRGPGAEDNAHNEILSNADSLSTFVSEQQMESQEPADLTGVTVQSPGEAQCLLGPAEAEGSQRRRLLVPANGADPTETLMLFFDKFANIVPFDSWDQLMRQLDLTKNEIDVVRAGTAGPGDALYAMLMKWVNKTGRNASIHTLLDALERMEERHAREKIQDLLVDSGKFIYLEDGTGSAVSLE
UniProt Q9Y320, whole entry, looked up: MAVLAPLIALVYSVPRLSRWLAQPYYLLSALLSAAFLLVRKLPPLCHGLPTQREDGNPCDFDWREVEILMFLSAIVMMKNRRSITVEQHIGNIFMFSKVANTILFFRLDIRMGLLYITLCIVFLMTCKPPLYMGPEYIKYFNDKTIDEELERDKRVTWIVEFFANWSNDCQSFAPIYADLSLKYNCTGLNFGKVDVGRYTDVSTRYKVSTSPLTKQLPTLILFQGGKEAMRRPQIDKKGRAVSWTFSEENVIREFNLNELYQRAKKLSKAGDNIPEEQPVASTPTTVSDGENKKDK
UniProt P63313: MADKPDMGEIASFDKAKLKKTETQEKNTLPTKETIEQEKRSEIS
UniProt O14763, whole entry, looked up: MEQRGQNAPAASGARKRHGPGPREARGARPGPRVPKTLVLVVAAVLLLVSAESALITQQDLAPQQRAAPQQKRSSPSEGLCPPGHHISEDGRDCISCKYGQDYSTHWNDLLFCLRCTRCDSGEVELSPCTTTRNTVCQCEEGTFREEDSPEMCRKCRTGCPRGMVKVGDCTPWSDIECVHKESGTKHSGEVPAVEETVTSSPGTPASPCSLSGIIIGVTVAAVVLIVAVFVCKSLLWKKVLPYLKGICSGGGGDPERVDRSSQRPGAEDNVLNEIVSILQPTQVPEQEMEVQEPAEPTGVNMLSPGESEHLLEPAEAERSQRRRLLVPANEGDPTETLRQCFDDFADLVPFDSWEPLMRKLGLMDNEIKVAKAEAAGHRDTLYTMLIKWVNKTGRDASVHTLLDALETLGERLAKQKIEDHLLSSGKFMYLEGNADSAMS
UniProt Q9H3N1: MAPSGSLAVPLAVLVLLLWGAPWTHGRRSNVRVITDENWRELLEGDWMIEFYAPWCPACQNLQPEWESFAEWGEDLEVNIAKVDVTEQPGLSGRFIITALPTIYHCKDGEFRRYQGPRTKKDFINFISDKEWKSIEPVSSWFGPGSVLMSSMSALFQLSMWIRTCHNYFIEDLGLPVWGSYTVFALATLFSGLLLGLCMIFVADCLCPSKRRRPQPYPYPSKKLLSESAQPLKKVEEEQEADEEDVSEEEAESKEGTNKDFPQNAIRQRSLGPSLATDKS

[1] = compound: CCCS(=O)(=O)Nc1ccc(F)c(C(=O)c2c[nH]c3ncc(Cl)cc23)c1F
How it was run: as §1

barasertib = compound: CCN(CCCOc1ccc2c(Nc3cc(CC(=O)Nc4cccc(F)c4)[nH]n3)ncnc2c1)CCOP(=O)(O)O [barasertib]
How it was run: as §1

[2] = compound: CC[C@@H]1C(=O)N(C)c2cnc(Nc3ccc(C(=O)NC4CCN(C)CC4)cc3OC)nc2N1C1CCCC1
How it was run: as §1

volasertib = compound: CC[C@@H]1C(=O)N(C)c2cnc(Nc3ccc(C(=O)N[C@H]4CC[C@H](N5CCN(CC6CC6)CC5)CC4)cc3OC)nc2N1C(C)C [volasertib]
How it was run: as §1

[3] = compound: CCn1c(C(=O)N(C2CC2)C2CC2)cc2c3c(ncn3C)c(Nc3cc(C)n(C)n3)nc21
How it was run: as §1

[4] = compound: CCn1cc(-c2ccnc3[nH]c(-c4cccc(CN(C)C)c4)cc23)c(-c2ccc(NC(=O)N(C)C)cc2)n1
How it was run: as §1

[5] = compound: CN1CCC(CNc2ccc3ncc(-c4cccc(OC(F)(F)F)c4)n3n2)CC1
How it was run: as §1

saracatinib = compound: CN1CCN(CCOc2cc(OC3CCOCC3)c3c(Nc4c(Cl)ccc5c4OCO5)ncnc3c2)CC1 [saracatinib]
How it was run: as §1

sotrastaurin = compound: CN1CCN(c2nc(C3=C(c4c[nH]c5ccccc45)C(=O)NC3=O)c3ccccc3n2)CC1 [sotrastaurin]
How it was run: as §1

alvocidib = compound: CN1CC[C@H](c2c(O)cc(O)c3c(=O)cc(-c4ccccc4Cl)oc23)[C@H](O)C1 [alvocidib]
How it was run: as §1

Tubastatin A = compound: CN1CCc2c(c3ccccc3n2Cc2ccc(C(=O)NO)cc2)C1 [Tubastatin A]
How it was run: as §1

[6] = compound: CNC(=O)C1=CC=CC=C1NC2=NC(=NC=C2Cl)NC3=C(C=C(C=C3)N4CCOCC4)OC
How it was run: as §1

defactinib = compound: CNC(=O)c1ccc(Nc2ncc(C(F)(F)F)c(NCc3nccnc3N(C)S(C)(=O)=O)n2)cc1 [defactinib]
How it was run: as §1

[7] = compound: CNc1nc(-c2ccc3c(N)n[nH]c3c2)cc(N2C[C@@H](C(=O)NC3CCCCC3)CC[C@H]2C)n1
How it was run: as §1

encorafenib = compound: COC(=O)N[C@@H](C)CNc1nccc(-c2cn(C(C)C)nc2-c2cc(Cl)cc(NS(C)(=O)=O)c2F)n1 [encorafenib]
How it was run: as §1

[8] = compound: COC(=O)[C@H](CCSC)NC(=O)C1=C(C=C(C=C1)NC[C@H](CS)N)C2=CC=CC=C2
How it was run: as §1

alisertib = compound: COc1cc(Nc2ncc3c(n2)-c2ccc(Cl)cc2C(c2c(F)cccc2OC)=NC3)ccc1C(=O)O [alisertib]
How it was run: as §1

[9] = compound: COc1cc2nc(-c3cc(F)ccc3O)nc(N[C@@H]3CNC[C@H]3C(C)(C)O)c2cc1OC
How it was run: as §1

gefitinib = compound: COc1cc2ncnc(Nc3ccc(F)c(Cl)c3)c2cc1OCCCN1CCOCC1 [gefitinib]
How it was run: as §1

Measured: log2 fold change

TPRKB (UniProt Q9Y3C4)
inactive: vemurafenib -0.001 | [1] 0.028 | barasertib 0.063 | [2] -0.036 | volasertib -0.019 | [3] -0.013 | [4] -0.079 | [5] -0.002 | saracatinib -0.019 | sotrastaurin -0.012 | alvocidib -0.024 | Tubastatin A 0.03 | [6] -0.043 | defactinib 0.07 | [7] 0.004 | encorafenib 0.055 | [8] 0.057 | alisertib -0.003 | [9] 0.024 | gefitinib 0.025

TPP2 (UniProt Q5VZU9)
inactive: vemurafenib 0.003 | [1] 0.061 | barasertib -0.002 | [2] 0.014 | volasertib 0.003 | [3] -0.005 | [4] -0.147 | [5] 0.088 | saracatinib -0.022 | sotrastaurin 0.044 | alvocidib -0.099 | Tubastatin A -0.121 | [6] 0.092 | defactinib 0.062 | [7] 0.068 | encorafenib -0.076 | [8] 0.058 | alisertib 0.006 | [9] 0.076 | gefitinib 0.011

TPMT (UniProt P51580)
inactive: vemurafenib 0.005 | [1] 0.017 | barasertib -0.003 | [2] 0.069 | volasertib 0.006 | [3] 0.036 | [4] 0.02 | [5] 0.002 | saracatinib -0.041 | sotrastaurin -0.028 | alvocidib 0.008 | Tubastatin A -0.032 | [6] -0.022 | defactinib 0 | [7] -0.111 | encorafenib -0.016 | [8] 0 | alisertib -0.031 | [9] -0.024 | gefitinib 0.005

TOMM40L (UniProt Q969M1)
inactive: vemurafenib 0.03 | [1] 0.024 | barasertib 0.068 | [2] 0.033 | volasertib -0.006 | [3] 0.236 | [4] 0 | [5] 0.091 | saracatinib 0.001 | sotrastaurin -0.004 | alvocidib -0.041 | Tubastatin A 0.107 | [6] -0.007 | defactinib -0.009 | [7] 0.139 | encorafenib -0.008 | [8] 0.07 | alisertib 0 | [9] 0.024 | gefitinib 0.035

TMPO (UniProt P42167)
inactive: vemurafenib 0.063 | [1] 0.008 | barasertib 0.003 | [2] -0.01 | volasertib 0.013 | [3] 0.022 | [4] 0.033 | [5] -0.033 | saracatinib 0.014 | sotrastaurin -0.014 | alvocidib -0.007 | Tubastatin A 0.018 | [6] -0.034 | defactinib -0.015 | [7] 0.029 | encorafenib 0.035 | [8] -0.163 | alisertib -0.026 | [9] -0.025 | gefitinib 0.027

TPD52L2 isoform 7 (UniProt O43399)
inactive: vemurafenib -0.02 | [1] -0.033 | barasertib 0.045 | [2] 0.048 | volasertib 0.017 | [3] 0.011 | [4] -0.14 | [5] 0.207 | saracatinib 0.003 | sotrastaurin 0.034 | alvocidib -0.043 | Tubastatin A 0.062 | [6] -0.005 | defactinib 0.023 | [7] 0.086 | encorafenib -0.026 | [8] 0.008 | alisertib -0.01 | [9] 0.037 | gefitinib 0.02

TPM3 (UniProt P06753)
inactive: vemurafenib -0.008 | [1] 0.009 | barasertib -0.02 | [2] 0.043 | volasertib 0.021 | [3] 0.013 | [4] 0.182 | [5] -0.062 | saracatinib -0.011 | sotrastaurin -0.031 | alvocidib 0.048 | Tubastatin A 0.049 | [6] -0.015 | defactinib 0.044 | [7] -0.003 | encorafenib -0.048 | [8] -0.02 | alisertib -0.007 | [9] 0 | gefitinib 0.008

TMEM189-UBE2V1 (UniProt I3L0A0)
inactive: vemurafenib 0.056 | [1] 0.011 | barasertib 0.05 | [2] 0.024 | volasertib 0.046 | [3] -0.011 | [4] -0.033 | [5] 0.068 | saracatinib 0.021 | sotrastaurin -0.034 | alvocidib 0.002 | Tubastatin A 0.013 | [6] 0.018 | defactinib -0.03 | [7] 0.126 | encorafenib 0.035 | [8] -0.049 | alisertib -0.032 | [9] -0.002 | gefitinib 0.028

TNFRSF10A (UniProt O00220)
inactive: vemurafenib -0.018 | [1] 0.006 | barasertib 0.056 | [2] -0.024 | volasertib 0.003 | [3] 0.002 | [4] 0.062 | [5] -0.042 | saracatinib 0.01 | sotrastaurin -0.017 | alvocidib 0.024 | Tubastatin A 0.04 | [6] -0.052 | defactinib -0.003 | [7] -0.058 | encorafenib 0 | [8] -0.029 | alisertib -0.024 | [9] -0.007 | gefitinib 0.105

TMX2 (UniProt Q9Y320)
inactive: vemurafenib -0.027 | [1] 0.021 | barasertib -0.021 | [2] -0.034 | volasertib 0.002 | [3] -0.002 | [4] 0.013 | [5] 0.007 | saracatinib -0.024 | sotrastaurin -0.079 | alvocidib 0 | Tubastatin A 0.013 | [6] -0.043 | defactinib -0.015 | [7] -0.012 | encorafenib 0.054 | [8] -0.028 | alisertib -0.021 | [9] -0.01 | gefitinib -0.011

TMSB10 (UniProt P63313)
inactive: vemurafenib 0.015 | [1] -0.149 | barasertib 0.14 | [2] 0.03 | volasertib 0.09 | [3] 0.051 | [4] 0.096 | [5] -0.138 | saracatinib -0.148 | sotrastaurin -0.078 | alvocidib 0.242 | Tubastatin A 0.122 | [6] 0.02 | defactinib 0.042 | [7] 0.067 | encorafenib -0.038 | [8] -0.02 | alisertib -0.012 | [9] -0.104 | gefitinib -0.189

TPM1 (UniProt H7BYY1)
active: [5] -0.205
inactive: vemurafenib -0.001 | [1] -0.024 | barasertib -0.031 | [2] 0.052 | volasertib 0.043 | [3] -0.003 | [4] 0.092 | saracatinib 0.009 | sotrastaurin 0.015 | alvocidib 0.027 | Tubastatin A 0.092 | [6] 0.007 | defactinib 0 | [7] 0.022 | encorafenib 0.056 | [8] -0.023 | alisertib -0.048 | [9] -0.04 | gefitinib 0.076

TNFRSF10B (UniProt O14763)
inactive: vemurafenib 0.066 | [1] -0.006 | barasertib 0.004 | [2] 0.018 | volasertib 0.051 | [3] 0.051 | [4] -0.015 | [5] 0.033 | saracatinib 0.034 | sotrastaurin -0.026 | alvocidib 0.038 | Tubastatin A 0.038 | [6] 0.031 | defactinib 0.007 | [7] 0.023 | encorafenib 0.01 | [8] -0.041 | alisertib 0.01 | [9] -0.077 | gefitinib -0.006

TMEM245 (UniProt Q9H330)
inactive: vemurafenib 0.055 | [1] -0.018 | barasertib 0.011 | [2] 0.05 | volasertib 0.025 | [3] 0.1 | [4] -0.06 | [5] 0.085 | saracatinib 0.052 | sotrastaurin 0.038 | alvocidib -0.056 | Tubastatin A -0.033 | [6] -0.03 | defactinib 0.054 | [7] -0.1 | encorafenib 0.044 | [8] -0.003 | alisertib -0.044 | [9] -0.059 | gefitinib 0.083

TMX1 (UniProt Q9H3N1)
inactive: vemurafenib -0.009 | [1] -0.011 | barasertib -0.008 | [2] -0.013 | volasertib 0.036 | [3] 0.023 | [4] -0.051 | [5] 0.023 | saracatinib -0.029 | sotrastaurin 0.011 | alvocidib 0.002 | Tubastatin A 0.01 | [6] -0.018 | defactinib 0.02 | [7] -0.001 | encorafenib 0.032 | [8] -0.022 | alisertib 0.017 | [9] -0.005 | gefitinib -0.005

TPM3 isoform 2 (UniProt P06753)
inactive: vemurafenib -0.052 | [1] -0.024 | barasertib -0.016 | [2] -0.07 | volasertib 0.007 | [3] 0.026 | [4] 0.196 | [5] -0.179 | saracatinib -0.009 | sotrastaurin 0.025 | alvocidib 0.03 | Tubastatin A 0.033 | [6] -0.012 | defactinib 0 | [7] -0.144 | encorafenib 0 | [8] -0.071 | alisertib 0 | [9] -0.024 | gefitinib 0.059

Two neighbouring records from above, quoted:
TMEM189-UBE2V1 (UniProt I3L0A0)
inactive: vemurafenib 0.056 | [1] 0.011 | barasertib 0.05 | [2] 0.024 | volasertib 0.046 | [3] -0.011 | [4] -0.033 | [5] 0.068 | saracatinib 0.021 | sotrastaurin -0.034 | alvocidib 0.002 | Tubastatin A 0.013 | [6] 0.018 | defactinib -0.03 | [7] 0.126 | encorafenib 0.035 | [8] -0.049 | alisertib -0.032 | [9] -0.002 | gefitinib 0.028

TNFRSF10A (UniProt O00220)
inactive: vemurafenib -0.018 | [1] 0.006 | barasertib 0.056 | [2] -0.024 | volasertib 0.003 | [3] 0.002 | [4] 0.062 | [5] -0.042 | saracatinib 0.01 | sotrastaurin -0.017 | alvocidib 0.024 | Tubastatin A 0.04 | [6] -0.052 | defactinib -0.003 | [7] -0.058 | encorafenib 0 | [8] -0.029 | alisertib -0.024 | [9] -0.007 | gefitinib 0.105
